Reference: the supplement of paper PMC12819154, “High-throughput peptide-centric local stability assay extends protein–ligand identification to membrane proteins, tissues and bacteria” (Nature Structural & Molecular Biology, 2025)
The other results are listed elsewhere or left out. Small differences around the control level are noise.

Sequences of proteins named here, by UniProt entry; tags and fusion partners are left off. A change or cut given only in a name is not applied to a line headed by its entry.
UniProt P04441: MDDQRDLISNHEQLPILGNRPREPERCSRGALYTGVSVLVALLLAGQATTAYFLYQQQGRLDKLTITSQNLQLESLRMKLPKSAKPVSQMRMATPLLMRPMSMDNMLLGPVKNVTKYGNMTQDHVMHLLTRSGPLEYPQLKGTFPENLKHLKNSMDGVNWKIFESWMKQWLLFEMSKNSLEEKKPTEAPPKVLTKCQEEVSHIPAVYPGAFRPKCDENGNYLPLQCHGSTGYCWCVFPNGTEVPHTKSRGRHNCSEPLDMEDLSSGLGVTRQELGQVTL
UniProt P01942: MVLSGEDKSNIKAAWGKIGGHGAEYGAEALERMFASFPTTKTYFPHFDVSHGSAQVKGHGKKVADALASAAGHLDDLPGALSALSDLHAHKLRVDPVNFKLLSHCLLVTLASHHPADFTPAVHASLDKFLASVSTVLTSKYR
UniProt P23950: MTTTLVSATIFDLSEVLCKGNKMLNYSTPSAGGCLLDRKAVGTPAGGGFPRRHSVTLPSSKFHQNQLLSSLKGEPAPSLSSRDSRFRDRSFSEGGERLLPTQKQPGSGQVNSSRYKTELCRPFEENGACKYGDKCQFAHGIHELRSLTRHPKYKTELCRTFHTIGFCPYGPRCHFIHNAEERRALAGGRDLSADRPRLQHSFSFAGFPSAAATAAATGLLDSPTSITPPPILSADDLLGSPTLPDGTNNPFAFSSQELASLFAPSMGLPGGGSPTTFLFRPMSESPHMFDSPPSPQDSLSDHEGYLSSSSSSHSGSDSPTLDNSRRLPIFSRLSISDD
UniProt P15327: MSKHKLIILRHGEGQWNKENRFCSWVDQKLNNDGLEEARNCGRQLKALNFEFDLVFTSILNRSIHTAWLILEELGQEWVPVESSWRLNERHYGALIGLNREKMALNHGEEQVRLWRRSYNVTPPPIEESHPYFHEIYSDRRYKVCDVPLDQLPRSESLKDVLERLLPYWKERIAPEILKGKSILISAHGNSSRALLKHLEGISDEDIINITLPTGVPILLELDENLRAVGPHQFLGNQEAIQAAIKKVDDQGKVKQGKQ
UniProt P16045, whole entry: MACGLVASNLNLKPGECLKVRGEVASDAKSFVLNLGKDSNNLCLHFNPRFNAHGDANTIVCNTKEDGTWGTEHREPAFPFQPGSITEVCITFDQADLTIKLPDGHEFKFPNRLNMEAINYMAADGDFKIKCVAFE
UniProt P14602, whole entry: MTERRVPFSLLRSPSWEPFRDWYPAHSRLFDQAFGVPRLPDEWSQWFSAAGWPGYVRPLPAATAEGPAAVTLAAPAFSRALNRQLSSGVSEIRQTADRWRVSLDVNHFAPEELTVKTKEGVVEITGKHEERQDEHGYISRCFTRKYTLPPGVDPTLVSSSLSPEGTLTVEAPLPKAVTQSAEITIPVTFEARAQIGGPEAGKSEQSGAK
UniProt P20852: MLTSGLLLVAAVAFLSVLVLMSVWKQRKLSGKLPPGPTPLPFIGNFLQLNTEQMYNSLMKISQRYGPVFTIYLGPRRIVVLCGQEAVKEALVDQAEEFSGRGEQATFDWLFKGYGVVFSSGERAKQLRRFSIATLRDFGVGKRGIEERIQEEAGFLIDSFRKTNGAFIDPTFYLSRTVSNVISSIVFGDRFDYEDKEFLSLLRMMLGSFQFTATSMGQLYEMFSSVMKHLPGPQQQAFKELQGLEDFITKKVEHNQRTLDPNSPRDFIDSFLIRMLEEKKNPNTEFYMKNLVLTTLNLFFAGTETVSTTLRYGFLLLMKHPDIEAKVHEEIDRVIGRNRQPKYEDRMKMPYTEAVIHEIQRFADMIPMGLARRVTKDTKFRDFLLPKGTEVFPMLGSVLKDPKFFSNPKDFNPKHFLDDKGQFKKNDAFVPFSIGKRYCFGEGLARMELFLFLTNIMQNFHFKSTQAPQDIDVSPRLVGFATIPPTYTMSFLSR
UniProt P11983, whole entry: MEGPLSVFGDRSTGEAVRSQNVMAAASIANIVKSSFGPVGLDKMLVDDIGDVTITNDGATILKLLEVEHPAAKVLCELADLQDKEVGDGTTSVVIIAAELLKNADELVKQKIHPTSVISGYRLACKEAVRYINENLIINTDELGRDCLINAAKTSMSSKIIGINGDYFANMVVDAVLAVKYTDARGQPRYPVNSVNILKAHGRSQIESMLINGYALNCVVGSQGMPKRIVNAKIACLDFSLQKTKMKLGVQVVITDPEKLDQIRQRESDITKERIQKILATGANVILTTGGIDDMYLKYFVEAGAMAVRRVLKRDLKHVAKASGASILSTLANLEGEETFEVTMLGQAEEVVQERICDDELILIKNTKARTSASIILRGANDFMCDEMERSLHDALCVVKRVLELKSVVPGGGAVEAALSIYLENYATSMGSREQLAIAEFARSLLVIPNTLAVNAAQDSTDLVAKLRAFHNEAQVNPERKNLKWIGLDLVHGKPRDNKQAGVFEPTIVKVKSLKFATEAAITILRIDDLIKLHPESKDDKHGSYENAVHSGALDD
UniProt P20108: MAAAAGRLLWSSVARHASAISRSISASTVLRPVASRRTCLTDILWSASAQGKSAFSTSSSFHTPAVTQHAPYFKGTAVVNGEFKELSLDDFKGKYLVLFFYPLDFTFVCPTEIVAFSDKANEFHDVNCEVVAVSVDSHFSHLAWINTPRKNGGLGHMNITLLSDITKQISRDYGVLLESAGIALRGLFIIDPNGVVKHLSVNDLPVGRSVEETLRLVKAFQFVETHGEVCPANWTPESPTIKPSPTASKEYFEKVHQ
UniProt P19426, whole entry: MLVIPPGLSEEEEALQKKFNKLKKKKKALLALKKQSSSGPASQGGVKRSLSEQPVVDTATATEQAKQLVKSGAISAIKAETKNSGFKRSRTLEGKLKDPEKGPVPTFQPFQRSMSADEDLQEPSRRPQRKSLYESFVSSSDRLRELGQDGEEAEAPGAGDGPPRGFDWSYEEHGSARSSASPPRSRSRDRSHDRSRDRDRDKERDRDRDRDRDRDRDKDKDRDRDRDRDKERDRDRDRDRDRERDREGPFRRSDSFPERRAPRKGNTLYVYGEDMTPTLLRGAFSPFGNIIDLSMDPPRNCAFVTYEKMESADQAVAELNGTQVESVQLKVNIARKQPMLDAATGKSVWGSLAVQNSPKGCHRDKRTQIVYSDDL
UniProt P15626: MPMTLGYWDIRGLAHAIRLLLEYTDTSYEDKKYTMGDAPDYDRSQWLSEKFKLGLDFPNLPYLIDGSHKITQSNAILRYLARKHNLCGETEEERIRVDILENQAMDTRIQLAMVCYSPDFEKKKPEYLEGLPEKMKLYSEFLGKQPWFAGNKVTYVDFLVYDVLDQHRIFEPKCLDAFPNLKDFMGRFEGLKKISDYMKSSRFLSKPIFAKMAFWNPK
UniProt P26150: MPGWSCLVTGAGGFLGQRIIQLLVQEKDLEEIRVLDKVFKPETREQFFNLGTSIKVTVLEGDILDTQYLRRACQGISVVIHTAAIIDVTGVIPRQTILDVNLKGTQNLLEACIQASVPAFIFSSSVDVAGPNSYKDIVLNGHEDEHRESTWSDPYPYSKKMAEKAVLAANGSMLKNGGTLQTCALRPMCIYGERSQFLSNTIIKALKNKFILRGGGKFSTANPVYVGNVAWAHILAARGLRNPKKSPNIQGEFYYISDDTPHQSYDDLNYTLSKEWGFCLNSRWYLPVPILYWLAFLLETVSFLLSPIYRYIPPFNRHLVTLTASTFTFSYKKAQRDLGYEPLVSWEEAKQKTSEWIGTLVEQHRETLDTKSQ
UniProt P27641: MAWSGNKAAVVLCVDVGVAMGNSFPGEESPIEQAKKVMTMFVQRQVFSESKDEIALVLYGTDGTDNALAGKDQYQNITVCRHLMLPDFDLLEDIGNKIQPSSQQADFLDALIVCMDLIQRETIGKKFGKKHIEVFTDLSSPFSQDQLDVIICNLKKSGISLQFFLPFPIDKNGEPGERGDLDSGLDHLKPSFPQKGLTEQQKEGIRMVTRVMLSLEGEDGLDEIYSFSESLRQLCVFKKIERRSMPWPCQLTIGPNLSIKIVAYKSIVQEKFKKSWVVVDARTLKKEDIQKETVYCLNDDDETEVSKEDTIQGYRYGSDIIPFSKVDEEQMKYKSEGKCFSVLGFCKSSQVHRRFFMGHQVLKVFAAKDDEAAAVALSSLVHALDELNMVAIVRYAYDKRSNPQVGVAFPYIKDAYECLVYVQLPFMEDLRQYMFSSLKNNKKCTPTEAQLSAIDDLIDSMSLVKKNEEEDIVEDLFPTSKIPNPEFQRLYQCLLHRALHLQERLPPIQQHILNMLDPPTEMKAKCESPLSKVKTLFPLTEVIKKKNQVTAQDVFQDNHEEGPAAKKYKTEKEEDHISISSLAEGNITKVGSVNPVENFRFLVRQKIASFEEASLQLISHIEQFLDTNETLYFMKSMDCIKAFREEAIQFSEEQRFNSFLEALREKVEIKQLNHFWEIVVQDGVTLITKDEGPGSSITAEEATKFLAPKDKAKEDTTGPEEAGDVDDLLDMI
UniProt P20357: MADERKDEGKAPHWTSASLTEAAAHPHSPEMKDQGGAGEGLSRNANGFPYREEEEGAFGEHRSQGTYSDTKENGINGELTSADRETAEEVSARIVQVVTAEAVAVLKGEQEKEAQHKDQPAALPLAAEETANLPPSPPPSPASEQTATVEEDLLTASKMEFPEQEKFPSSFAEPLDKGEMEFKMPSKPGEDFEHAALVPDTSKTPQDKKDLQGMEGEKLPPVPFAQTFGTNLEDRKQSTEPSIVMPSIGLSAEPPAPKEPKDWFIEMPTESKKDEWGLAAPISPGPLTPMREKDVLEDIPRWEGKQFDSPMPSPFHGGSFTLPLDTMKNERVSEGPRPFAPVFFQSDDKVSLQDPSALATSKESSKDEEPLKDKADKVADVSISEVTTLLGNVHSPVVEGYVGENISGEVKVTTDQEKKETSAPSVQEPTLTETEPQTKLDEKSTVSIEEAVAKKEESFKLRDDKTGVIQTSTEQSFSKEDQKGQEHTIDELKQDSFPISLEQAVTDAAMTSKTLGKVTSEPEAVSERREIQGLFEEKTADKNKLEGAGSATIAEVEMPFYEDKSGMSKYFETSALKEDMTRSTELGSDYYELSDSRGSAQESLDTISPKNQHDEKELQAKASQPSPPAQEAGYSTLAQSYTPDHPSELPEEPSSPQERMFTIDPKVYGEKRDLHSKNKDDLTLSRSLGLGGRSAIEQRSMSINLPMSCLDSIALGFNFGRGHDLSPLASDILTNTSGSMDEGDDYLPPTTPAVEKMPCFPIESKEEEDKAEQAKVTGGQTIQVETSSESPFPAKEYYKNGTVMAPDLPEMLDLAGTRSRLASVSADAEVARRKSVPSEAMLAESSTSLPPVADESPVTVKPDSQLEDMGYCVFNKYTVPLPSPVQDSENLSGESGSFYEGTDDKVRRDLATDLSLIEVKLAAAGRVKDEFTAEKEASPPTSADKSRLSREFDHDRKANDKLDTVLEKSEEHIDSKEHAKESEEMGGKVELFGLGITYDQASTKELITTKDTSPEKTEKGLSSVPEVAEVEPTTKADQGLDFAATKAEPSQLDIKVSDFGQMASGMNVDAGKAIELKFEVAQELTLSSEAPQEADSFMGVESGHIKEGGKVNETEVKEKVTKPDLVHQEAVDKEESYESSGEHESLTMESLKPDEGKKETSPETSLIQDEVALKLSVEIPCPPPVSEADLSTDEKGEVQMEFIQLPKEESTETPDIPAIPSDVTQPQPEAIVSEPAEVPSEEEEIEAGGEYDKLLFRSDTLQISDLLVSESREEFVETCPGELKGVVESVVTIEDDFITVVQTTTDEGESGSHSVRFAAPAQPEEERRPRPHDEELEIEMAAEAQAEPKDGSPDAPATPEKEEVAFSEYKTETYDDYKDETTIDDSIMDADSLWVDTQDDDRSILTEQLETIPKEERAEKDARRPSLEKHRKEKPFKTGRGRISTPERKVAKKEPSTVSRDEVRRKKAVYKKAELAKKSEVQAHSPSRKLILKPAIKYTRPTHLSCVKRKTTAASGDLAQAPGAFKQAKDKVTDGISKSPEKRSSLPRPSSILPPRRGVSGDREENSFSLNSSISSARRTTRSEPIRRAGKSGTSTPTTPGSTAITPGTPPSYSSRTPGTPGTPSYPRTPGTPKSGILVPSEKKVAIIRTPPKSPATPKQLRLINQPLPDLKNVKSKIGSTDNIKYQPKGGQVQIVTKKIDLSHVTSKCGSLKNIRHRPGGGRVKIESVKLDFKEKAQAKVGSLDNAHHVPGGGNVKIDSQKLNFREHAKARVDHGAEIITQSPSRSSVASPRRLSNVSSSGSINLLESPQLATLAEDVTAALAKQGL
UniProt P21278: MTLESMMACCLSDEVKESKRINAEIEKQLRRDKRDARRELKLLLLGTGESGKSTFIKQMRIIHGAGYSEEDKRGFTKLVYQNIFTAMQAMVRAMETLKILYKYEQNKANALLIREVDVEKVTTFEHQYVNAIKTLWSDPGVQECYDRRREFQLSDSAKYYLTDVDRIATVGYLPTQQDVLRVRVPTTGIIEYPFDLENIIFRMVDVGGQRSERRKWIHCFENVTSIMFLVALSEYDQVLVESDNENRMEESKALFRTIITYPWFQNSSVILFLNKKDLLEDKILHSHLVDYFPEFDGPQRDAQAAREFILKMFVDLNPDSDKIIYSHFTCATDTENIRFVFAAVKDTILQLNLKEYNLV

Each target was assayed with CN[C@@H]1C[C@H]2O[C@@](C)([C@@H]1OC)n1c3ccccc3c3c4c(c5c6ccccc6n2c5c31)C(=O)NC4 [staurosporine] (assay: log2 fold change of pooled soluble protein (PISA), ligand vs vehicle (log2 ratio); higher = more thermally stabilized). Conditions: ligand concentration: 20 uM; assay format: PISA pool 52.9/55.5/58.6 C.

Target | log2 fold change of pooled soluble protein
UniProt P25911 | -0.0305
UniProt P04441 | 0.0456
UniProt P01942 | -0.00104
UniProt P12246 | -0.0277
UniProt P23950 | 0.015
UniProt P10637 | -0.0208
UniProt P17095 | 0.0713
UniProt P01898 | -0.00487
UniProt P15327 | 0.115
UniProt P22315 | 0.229
UniProt P01872 | -0.179
UniProt P16045 | 0.0512
UniProt P03930 | -0.0222
UniProt P14602 | -0.0225
UniProt P26262 | -0.0198
UniProt P10649 | -0.0671
UniProt P20852 | -0.138
UniProt P11983 | -0.0079
UniProt P11031 | -0.0575

An excerpt of these results, as a markdown table.

| Target | log2 fold change of pooled soluble protein |
| --- | --- |
| UniProt P12246 | -0.0277 |
| UniProt P23950 | 0.015 |
| UniProt P10637 | -0.0208 |
| UniProt P17095 | 0.0713 |
| UniProt P01898 | -0.00487 |
| UniProt P15327 | 0.115 |
| UniProt P22315 | 0.229 |

(continued)

Target | log2 fold change of pooled soluble protein
UniProt P26043 | -0.0864
UniProt P13634 | -0.0641
UniProt P20108 | -0.0253
UniProt P11679 | -0.278
UniProt P03921 | -0.0634
UniProt P09055 | -0.0367
UniProt P11531 | 0.0463
UniProt P19426 | 0.148
UniProt P10639 | 0.206
UniProt P02088 | 0.145
UniProt P26645 | 0.157
UniProt P15626 | 0.106
UniProt P12367 | -0.0191
UniProt P26150 | -0.0974
UniProt P23116 | -0.036
UniProt P27641 | 0.182
UniProt P20357 | 0.0888
UniProt P18654 | 0.706
UniProt P21278 | -0.0421
